Data from PMC3274541.
Numbering of substitutions follows the chain as printed. Results are given in words; binding and its absence hold for the method and conditions named. Binding seen in cells or lysates may run through a third protein. Some entries that bind do so weakly or less than the wild type. For part of these data: Tags and fused reporters may be left off the sequences shown.

Amino acid sequences for entries named in this document (tags omitted). A change or cut given only in a name is not applied to a line headed by its entry. Chains listed by the source or under a name are the forms on record and can include a tag or linker.
NUB1-FLAG (NEDD8 ultimate buster-1) (Q9Y5A7-2, form named): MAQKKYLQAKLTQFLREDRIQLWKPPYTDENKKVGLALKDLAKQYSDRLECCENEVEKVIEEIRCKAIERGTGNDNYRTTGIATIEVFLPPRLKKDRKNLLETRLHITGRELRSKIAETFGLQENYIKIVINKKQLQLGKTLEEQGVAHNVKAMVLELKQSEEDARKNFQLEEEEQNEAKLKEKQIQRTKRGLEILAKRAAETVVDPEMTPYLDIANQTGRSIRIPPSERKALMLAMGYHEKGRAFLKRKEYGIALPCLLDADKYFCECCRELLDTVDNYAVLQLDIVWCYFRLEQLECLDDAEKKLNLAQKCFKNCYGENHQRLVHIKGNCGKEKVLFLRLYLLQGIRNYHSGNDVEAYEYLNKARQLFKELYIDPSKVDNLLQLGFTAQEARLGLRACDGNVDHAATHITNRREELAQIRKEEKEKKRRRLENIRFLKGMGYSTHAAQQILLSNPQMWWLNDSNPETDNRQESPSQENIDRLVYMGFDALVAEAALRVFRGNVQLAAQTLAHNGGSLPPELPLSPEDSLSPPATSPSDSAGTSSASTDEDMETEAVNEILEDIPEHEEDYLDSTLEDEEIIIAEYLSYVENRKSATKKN
UniProt O15205: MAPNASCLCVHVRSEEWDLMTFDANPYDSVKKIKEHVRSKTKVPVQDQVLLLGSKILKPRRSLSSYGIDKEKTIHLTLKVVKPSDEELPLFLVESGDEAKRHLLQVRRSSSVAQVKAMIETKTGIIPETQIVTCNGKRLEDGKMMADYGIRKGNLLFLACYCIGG

Tests used:
GST-AIPL1 = target: T1, GST-AIPL1 (UniProt Q9NZN9); test: pull-down; 0.38 nmol GST or GST-AIPL1 with GST-pre-cleared lysate of HA-FAT10-transfected SK-N-SH cells, 4°C overnight; Glutathione-Sepharose 4B, washes in ice-cold PBS; western blot; only the target purified
T1 sequence: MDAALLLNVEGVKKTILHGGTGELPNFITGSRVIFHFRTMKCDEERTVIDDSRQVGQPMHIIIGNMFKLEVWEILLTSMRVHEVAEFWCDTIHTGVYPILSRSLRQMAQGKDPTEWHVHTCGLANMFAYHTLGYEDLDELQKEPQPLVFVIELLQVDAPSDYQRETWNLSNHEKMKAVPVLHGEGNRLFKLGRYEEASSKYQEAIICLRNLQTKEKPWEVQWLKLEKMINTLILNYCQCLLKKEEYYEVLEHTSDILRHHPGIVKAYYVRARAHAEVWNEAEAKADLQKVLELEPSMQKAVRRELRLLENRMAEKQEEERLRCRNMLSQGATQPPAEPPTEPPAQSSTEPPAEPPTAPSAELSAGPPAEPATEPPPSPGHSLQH

[1] = target: T2, Myc-AIPL1 (aryl hydrocarbon receptor interacting protein-like 1), wild type (UniProt Q9NZN9); test: co-IP; SK-N-SH cells co-transfected; lysed in DM buffer (1% n-dodecyl-β-D-maltoside, 10 mM EDTA, protease inhibitors in PBS); 2 µl antibody 2 h at 4°C, Protein G Sepharose overnight at 4°C, 5 washes; western blot; with or without 50 µM MG132 for 4 h
T2 sequence: T1 sequence

[2] = target: NUB1-FLAG (NEDD8 ultimate buster-1) (UniProt Q9Y5A7); test: as above
HA-FAT10 = HA-FAT10 (UniProt O15205); test: as above
Myc-AIPL1 G262S = target: T3, Myc-AIPL1 G262S (UniProt Q9NZN9); test: as above
T3 sequence: T1 sequence with G262S

Measured: binding

HA-FAT10 (from UniProt O15205 1-165)
binds: GST-AIPL1 | [1] | [2]

NUB1-FLAG (NEDD8 ultimate buster-1) (from UniProt Q9Y5A7-2 1-601)
binds: HA-FAT10 | [1] | Myc-AIPL1 G262S
